# Results of single-concentration screens

Data taken from ChEMBL document CHEMBL3988442, “University of Dundee, Small-Polar-MMV Screening Library” (2021).

T. brucei: 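Whole-parasite assay of Trypanosoma brucei over 72 hours; the read-out is not stated. Tested at 30 µM. The record gives no direction; compounds that gave an IC50 in retests scored well above the rest, so higher reads as stronger inhibition. Values scatter widely below zero; nearly all retest evidence comes from the higher of the two concentrations used. Size under these conditions: about 64,000 compounds, about 940 of them at 50% or above in at least one test.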
Leishmania in macrophages: 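Cell assay of Leishmania donovani living inside macrophages; the read-out is not stated. Tested at 30 µM. The record gives no direction; compounds that gave an IC50 in retests scored well above the rest, so higher reads as stronger inhibition. Of about 69,000 compounds tested this way, about 1,000 (1.5%) reached 50% or more in at least one test.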
Toxoplasma: 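Assay of Toxoplasma gondii numbers, read through their beta-galactosidase reporter with a colour substrate. Concentration: 10 µM. Higher reads as fewer parasites (inferred from which compounds were picked for retests). About 67,000 compounds were tested under these conditions; 0.38% (about 260) showed 50% or more at least once.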

The filed quantity is “Percent Effect” (%). How 0% and 100% were set is not recorded. Most values in the screen are low, and negative values occur. Compounds were drawn at random from those tested, without regard to their results. Two or more numbers in one place are separate tests of the same structure; such repeats can differ widely.

Result for Cc1nc2c(c(NC(C)C)n1)CCN(C1CCOCC1)CC2.O=C(O)C(F)(F)F was T. brucei: -56.9%; Leishmania in macrophages: 14.91%; Toxoplasma: -3.182%.
Result for [H][C@@]12C[C@H](C(=O)N3CCCC3)[C@@]([H])(CN(C(=O)NCCc3ccccc3)C1)O2 was T. brucei: -11.91%; Leishmania in macrophages: -3.418%; Toxoplasma: 1.372%.
Result for CC(C1CCN(Cc2ccc(N(C)C)nc2)CC1)N(C)C (centres undefined) was T. brucei: -0.5418%; Leishmania in macrophages: 19.95%; Toxoplasma: 0.1357%.
Result for Cl.c1csc(-c2noc(C3CCCNC3)n2)c1 (centres undefined) was T. brucei: -16.9%; Leishmania in macrophages: 9.242%.
Result for O=C1CNc2ncnc(Nc3cnn(Cc4ccc(F)cc4)c3)c2N1 was T. brucei: -32.78%; Leishmania in macrophages: 7.472%; Toxoplasma: -9.051%.
Result for CC(O)c1cn(C2CCN(C(=O)C3(C)CCN(C)CC3)CC2)nn1 (centres undefined) was Leishmania in macrophages: -5.526%; Toxoplasma: -2.179%.
Result for O=C(c1ccc(-n2cccn2)nc1)N1CCCC(n2cccn2)C1 (centres undefined) was T. brucei: 8.287%; Leishmania in macrophages: 5.478%; Toxoplasma: 6.191%.
Result for CCC1CN(CC(=O)NC(C)C)CCO1 (centres undefined) was T. brucei: -14.96%; Leishmania in macrophages: 13.73%; Toxoplasma: 11.25%.
Result for O=C(O)C(F)(F)F.[H][C@]12CCC(=O)N(Cc3ccncc3)[C@@]1([H])CCN2C(=O)CC1CC1 was T. brucei: -15.55%; Leishmania in macrophages: -2.986%; Toxoplasma: -19.37%.
Result for COc1ccc(CCC(=O)NC2CCC(O)CC2)cc1OC (centres undefined) was T. brucei: 18.03%; Leishmania in macrophages: 14.87%; Toxoplasma: -3.453%.
Result for CN(Cc1ccncc1)C1COC2(CCN(Cc3ccco3)CC2)C1.O=C(O)C(F)(F)F.O=C(O)C(F)(F)F.O=C(O)C(F)(F)F (centres undefined) was T. brucei: -11.07%; Leishmania in macrophages: 18.29%; Toxoplasma: 0.2973%.
Result for CCn1ncc2c1C(COC)N(C(=O)Cc1cccs1)CC2 (centres undefined) was T. brucei: -64.93%; Leishmania in macrophages: -3.401%; Toxoplasma: -3.533%.
Result for COc1c(C2SCC(=O)Nc3[nH]ncc32)cc2c(c1OC)OCO2 (centres undefined) was T. brucei: 46.19%; Leishmania in macrophages: -2.157%; Toxoplasma: 6.032%.
Result for Cn1cnc2c1CCN(Cc1csc(C3CCCCC3)n1)C2 was Leishmania in macrophages: 37.15%; Toxoplasma: -0.3839%.
Result for CCc1ocnc1C(=O)N1CCOC(c2nc(C)n[nH]2)C1 (centres undefined) was T. brucei: -13.47%; Leishmania in macrophages: 23.18%; Toxoplasma: 8.886%.
Result for O=C(O)C(F)(F)F.O=C(O)C(F)(F)F.c1cnc(N2CC3(CCN(Cc4cccnc4)C3)C2)nc1 was T. brucei: -15.5%; Leishmania in macrophages: 0.8779%; Toxoplasma: 21.04%.
Result for CCOc1ccc(C(=O)NC2CC2)cc1C was T. brucei: -36.87%; Leishmania in macrophages: 9.32%; Toxoplasma: 7.815%.
Result for CCN(CC(C)C#N)C(=O)c1cccc(COc2ccc(C)nc2)c1 (centres undefined) was T. brucei: -41.39%; Leishmania in macrophages: 30.04%; Toxoplasma: -6.608%.
Result for O=C(O)C(F)(F)F.O=C(O)C(F)(F)F.[H][C@@]12CN(Cc3cnn(C)c3)C[C@]1([H])OCCN2Cc1c(C)noc1C was T. brucei: -19.13%; Leishmania in macrophages: 25.37%; Toxoplasma: 0.5175%.
Result for CC1CCN(c2ccc(C(=O)N3CCCC3c3ccc[nH]3)cn2)CC1 (centres undefined) was T. brucei: -12.86%; Leishmania in macrophages: -0.6025%; Toxoplasma: 3.557%.
Result for O=C(O)C(F)(F)F.O=C(O)C(F)(F)F.O=C(O)C(F)(F)F.[H][C@@]12CN(Cc3cccnc3)CCO[C@]1([H])CN(Cc1sccc1C)C2 was T. brucei: -45.23%; Leishmania in macrophages: -28.24%; Toxoplasma: 0.06313%.
Result for Cn1cccc1C(=O)N1CCN(Cc2cccnc2)c2ncccc2C1.O=C(O)C(F)(F)F.O=C(O)C(F)(F)F was T. brucei: -4.049%; Leishmania in macrophages: 10.8%; Toxoplasma: 1.699%.
Result for O=C(NC1CCCN(c2ccccc2Cl)C1)c1nc(=O)[nH][nH]1 (centres undefined) was T. brucei: -6.295%; Leishmania in macrophages: -6.702%; Toxoplasma: 0.7497%.
Result for Cc1cc(C)nc(N2CCCC(c3nccn3CCCN(C)C)C2)c1 (centres undefined) was T. brucei: -17.07%; Leishmania in macrophages: 24.46%; Toxoplasma: 17.26%.
Result for Cc1cccc2[nH]c(C3CCCN(Cc4ccc(CO)o4)C3)nc12 (centres undefined) was T. brucei: -14.17%; Leishmania in macrophages: 31.52%; Toxoplasma: -4.015%.
Result for CN(Cc1ccc(F)c(F)c1)C(=O)CCc1nc(-c2nnc[nH]2)no1 was T. brucei: 12.36%; Leishmania in macrophages: 0%; Toxoplasma: 2.786%.
Result for O=C(CCn1cncn1)NCC1CCCC1 was Leishmania in macrophages: 22.86%; Toxoplasma: -3.516%.
Result for CS(=O)(=O)N1CCCn2nc(CNc3cc(C#N)ccn3)cc2C1 was T. brucei: -30.1%; Leishmania in macrophages: 12.56%; Toxoplasma: -1.274%.
Result for COc1c(C)cnc(CNC(=O)c2cnc3onc(C)c3c2)c1C was T. brucei: 15.22%; Leishmania in macrophages: -15.21%; Toxoplasma: -8.021%.
Result for Cc1cccc(C)c1OC1CN(Cc2cnn(C)c2)C1 was T. brucei: -3.198%; Leishmania in macrophages: 15.94%; Toxoplasma: -6.029%.
Result for CN1CCCC(CCC(=O)N2CCc3[nH]c(-c4ccccc4)nc3C2)C1 (centres undefined) was T. brucei: -31.63%; Leishmania in macrophages: -14.44%; Toxoplasma: 4.512%.
Result for O=C(CCn1cnc2cc(F)c(F)cc21)N1CCN(C2CC2)CC1 was T. brucei: -8.922%; Leishmania in macrophages: 21.34%; Toxoplasma: 4.263%.
Result for CC(C)N1CCC2(CC1)NC(=O)c1cc(Br)ccc1-n1nnnc12 was T. brucei: -13.85%; Leishmania in macrophages: 19.86%; Toxoplasma: 12.43%.
Result for COc1cc(CN(C)CCc2ccncc2)c(SC)cc1OC was T. brucei: -2.822%; Leishmania in macrophages: -10.76%; Toxoplasma: 2.28%.
Result for O=C(C1CCC1)N1CCCn2nc(CNc3ncccn3)cc2C1 was T. brucei: 0.5116%; Leishmania in macrophages: 25.49%; Toxoplasma: -29.82%.
Result for CCN1CCC2(CC1)CC(CC(=O)N(C)C)c1ccc(F)cc12 (centres undefined) was T. brucei: -38.33%; Leishmania in macrophages: 64.47%; Toxoplasma: 13.94%.
Result for CC1CCC(O)(CSc2nnnn2C)CC1 (centres undefined) was T. brucei: -35.98%; Leishmania in macrophages: 19.28%; Toxoplasma: 13.29%.
Result for [H][C@]12CN(C(=O)c3cc(C)oc3C)C[C@@]1([H])OCCN(S(C)(=O)=O)C2 was T. brucei: -59.69%; Leishmania in macrophages: -2.825% and 8.886%; Toxoplasma: -1.953%.
Result for Cc1nc(CNC(=O)Nc2ccc3c(c2)CCCC(=O)N3)sc1C was T. brucei: -9.431%; Leishmania in macrophages: 27.85%; Toxoplasma: -3.077%.

The first 4 entries again:

* Cc1nc2c(c(NC(C)C)n1)CCN(C1CCOCC1)CC2.O=C(O)C(F)(F)F | T. brucei: -56.9%; Leishmania in macrophages: 14.91%; Toxoplasma: -3.182%
* [H][C@@]12C[C@H](C(=O)N3CCCC3)[C@@]([H])(CN(C(=O)NCCc3ccccc3)C1)O2 | T. brucei: -11.91%; Leishmania in macrophages: -3.418%; Toxoplasma: 1.372%
* CC(C1CCN(Cc2ccc(N(C)C)nc2)CC1)N(C)C (centres undefined) | T. brucei: -0.5418%; Leishmania in macrophages: 19.95%; Toxoplasma: 0.1357%
* Cl.c1csc(-c2noc(C3CCCNC3)n2)c1 (centres undefined) | T. brucei: -16.9%; Leishmania in macrophages: 9.242%